From EP1972333A1, “Stabilised aqueous solutions of ergolin compounds” (Axxonis Pharma AG, priority 2007, dated 2008)

Conditions: Propylenglykol (between 1.00 and 10.00%), 60°C, one week, in the dark; 10080 min

With CCN(CC)C(=O)N[C@H]1C=C2c3cccc4[nH]cc(c34)C[C@H]2N(C)C1 [Lisuridhydrogenmaleat] the “verbliebener Wirkstoffgehalt” value was 92.5%.
